Assay results: patent publication EP4635980A1 (Medigene Immunotherapies GmbH, dated 2025)
No constants are given. Whether binding was seen depends on the method and setting. Some entries that bind do so weakly or less than the wild type. For some of these results: Sequences can lack the tags named with a protein.

How the values were obtained:
[1] = target: T1, ALA-10 mutagenic UNI-tag peptide (DKGEVPKDRASA); test: dot blot, peptide on PVDF membrane
T1 construct: UNI-tag with alanine at position 10 (F10A); also called Uni-Tag-ALA 10; positive control
T1 peptide: DKGEVPKDRASA

[2] = target: UNI-tag modified NY-ESO-1 (T11.8-10-17) specific TCR; test: flow cytometry on transduced Jurkat 76 -/- CD8+ ieGFP cells
[3] = target: UNI-tag modified PRAME-VLD (T4.8-1-29) specific TCR; test: as above
[4] = target: UNI-tag modified KRasG12V (T47.8-41-071) specific TCR; test: as above

Measured: binding

B1: recombinant monoclonal MDG827 antibody (produced in HEK293 cells) (antibody, V domains shown)
VH: EVQLEESGGGLVQPGRSMKLSCAASGFTFSDYGMAWVLQGPTKGLEWVASISYDGNRPYYRDSVKGRFTISRDNAKSTLYLQMESLRSEDTATYYCVKDLFEIGDFDYWGQGVMVTVSS
VL: DVLMTQTPVSLPVSLGGQVSISCRSSQSLVHSDGNTYLHWYLQKPGQSPQLLIYRVSNRFSGVPDRFTGSGSGTDFTLKISRVEPEDLGVYYCLQSTHFPLTFGSGTKLEIKR
notes: used as culture supernatant; Detected with anti-rat IgG2a; also called recombinantly produced MDG827; anti-TRBC MDG827 antibody
binds: all assays above
